Laboratory results from PubChem BioAssay AID504444 (National Center for Advancing Translational Sciences (NCATS), 2011).
The campaign covered roughly 360,000 compounds. About 7,500 (2.1%) were called active. Inconclusive means that the source gave no clear call. Such entries were picked first, then a sample of the others. Calls follow the shape of the dose curve; as a rule, active = well fitted inhibition curve with a large enough effect; inconclusive = small, poorly fitted or top-dose-only effect, or effect the other way; inactive = flat fitted curve, though single readings scatter. Potencies of inconclusive entries are doubtful fits and often do not repeat.

Test: Nrf2 qHTS screen for inhibitors; also: nearly all actives have a fitted effect of over 60% in size
Details: A549 ARE-Fluc reporter, luciferase luminescence, 18-24 h; series mostly up to 46 µM
Procedure, shortened: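 A549 ARE_Fluc cells (5000/well, 5% FBS OPTI-MEM) pre-incubated 2 h, then treated with compounds 18-24 h at 37C/5% CO2 in concentration-response. CellTiter-Fluor viability read first; BugLite luciferase luminescence after 15 min at room temperature gives Nrf2 activity.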
Potency is read from the fitted curve at half-maximal effect.

Structure (SMILES) | Potency
Cc1cccn2c(=O)c(/C=C(\C#N)C(=O)NC3CCS(=O)(=O)C3)c(N3CCC(C)CC3)nc12 (centres undefined) | inactive
O=C(CN(C(=O)CCC(=O)Nc1nccs1)c1cccc(C(F)(F)F)c1)NCC1CCCO1 (centres undefined) | inconclusive: 6.51 µM [activator, single point]
Cc1cc2cc3c(N)[nH]nc3nc2cc1C | inconclusive: 4.61 µM [activator, single point]
COc1ccc(OC)c(NC(=O)Cn2cc(S(=O)(=O)c3ccccc3)c(=O)c3cc(C)ccc32)c1 | inconclusive: 16.4 µM [activator, single point]
Oc1csc(Cc2nc(-c3ccc(-c4ccccc4)cc3)cs2)n1 | inconclusive: 29.1 µM [activator, partial curve, poor fit]
COc1ccc(-n2nc3c(N4CCC(C(=O)NCCc5ccco5)CC4)nnc(C)c3c2C)cc1 | inconclusive: 20.6 µM [falling, partial curve]
COc1ccc(NC(=O)c2cccc3ccccc23)cc1 | inconclusive: 20.6 µM [activator, partial curve]
Cc1cc(=O)[nH]c(SCc2cccc3cccnc23)n1 | inconclusive: 0.92 µM [activator, partial curve, poor fit]
Fc1cccc(F)c1-c1nc(-c2ccncc2)no1 | inconclusive: 8.2 µM [activator, partial curve]
O=C1CN(c2ccc(Cl)cc2)C2(CCCCC2)S1 | inconclusive: 32.6 µM [activator, single point]
Oc1ccc(/C=N/NC(=S)Nc2cccnc2)cc1O | inactive
CNc1ccccc1C(=O)OCC(=O)Nc1ccc2c(c1)OCO2 | inconclusive: 8.2 µM [activator, partial curve, poor fit]
CC1(C)CC(=O)C=C(Nc2ccccc2NC(=O)c2cnccn2)C1 | inactive
CCC(=O)c1ccc(OCC(=O)NCC2(N3CCCCC3)CCCCC2)cc1 | inactive
CCCS(=O)(=O)N1CCCC(C(=O)NCCCN(Cc2ccccc2)C(C)C)C1 (centres undefined) | inconclusive: 2.59 µM [activator, single point]
O=C(Nc1ccc(F)cc1)c1ccc(Br)c(S(=O)(=O)N2CCOCC2)c1 | active: 14.6 µM
O=c1[nH]c2ccc(S(=O)(=O)N3CCCCC3)cc2s1 | inconclusive: 8.2 µM [falling, partial curve, poor fit]
CC1(C)Cc2c(c(N3CCOCC3)nc3sc4c(=O)[nH]cnc4c23)CS1 | inconclusive: 20.6 µM [falling, single point]
COC(=O)[C@@H](NC(=O)CCc1nnc(-c2ccsc2)o1)C(C)C | inconclusive: 20.6 µM [activator, partial curve, poor fit]
CC(=O)c1cccc(NC(=O)CCc2c(C)nc3c(-c4ccc(F)cc4)c(C)nn3c2C)c1 | inactive
C/C(=N\Nc1nc2ccccc2s1)c1ccc2c(c1)OCO2 | inconclusive: 14.6 µM [activator, partial curve]
CC(C)c1cc(-c2cc(C(=O)NCc3ccccc3)on2)nc(NC2CCCC2)n1 | inconclusive: 29.1 µM [falling, single point]

In the list so far, two have a thiophene ring, fused or not.
Structure (SMILES) | Potency
CC1(C)Cc2c(c(N3CCOCC3)nc3sc4c(=O)[nH]cnc4c23)CS1 | inconclusive: 20.6 µM [falling, single point]
COC(=O)[C@@H](NC(=O)CCc1nnc(-c2ccsc2)o1)C(C)C | inconclusive: 20.6 µM [activator, partial curve, poor fit]

Next part

Structure (SMILES) | Potency
COc1ccccc1C(=O)COC(=O)C(NC(=O)Cc1ccccc1)C(C)C (centres undefined) | inconclusive: 0.116 µM [falling, full curve, poor fit]
c1cc(SC2CCCCC2)cc(-c2nc3cnccn3c2NC2CCCCC2)c1 | inconclusive: 18.4 µM [falling, single point]
CCN(CC)CC(O)Cn1c(C)c(-c2ccccc2)c2cc([N+](=O)[O-])ccc21 (centres undefined) | inconclusive: 23.1 µM [activator, single point]
CN1/C(=C\C(=O)CSc2nnc(N)s2)C(C)(C)c2ccccc21 | inactive
CCSc1nnc(NC(=O)NCC(F)(F)F)s1 | inactive
COc1cc(Cl)c(C)cc1NC(=O)COc1ccccc1[N+](=O)[O-] | inconclusive: 0.82 µM [falling, full curve, poor fit]
c1ccc2c(Oc3ccc4c(c3)OCO4)nncc2c1 | inconclusive: 0.82 µM [activator, full curve]
Oc1[nH]c2ccccc2c1N=Nc1ccccn1 | inconclusive: 4.61 µM [activator, full curve, poor fit]
O=C(c1ccc2c3n(nc2c1)-c1ccc(Cl)cc1CO3)N1CCOCC1 | inconclusive: 16.4 µM [activator, partial curve]
CCN(CC)CC(=O)N1CCCC(C(=O)c2ccccc2OC)C1 (centres undefined) | inconclusive: 20.6 µM [activator, partial curve, poor fit]
CNc1nc(SCc2ccccc2Cl)nc2c1CCCC2 | inconclusive: 23.1 µM [falling, single point]
O=C(NCC12CC3CC(CC(C3)C1)C2)c1cc2n(n1)C(C(F)(F)F)CC(c1ccco1)N2 (centres undefined) | inconclusive: 23.1 µM [falling, single point]
Cc1ccc(-n2cnc3cc(NCc4cccs4)ccc32)cc1 | inactive
COc1nc2c(C)cccc2cc1-c1noc(-c2ccco2)n1 | inconclusive: 14.6 µM [activator, partial curve, poor fit]
O=NN(CCc1ccncc1)c1ccc(OCc2ccccc2)cc1 | active: 6.51 µM
COc1ccc(-c2nc(-c3ccc(C(=O)O)cc3)no2)cc1 | inconclusive: 1.16 µM [activator, full curve, poor fit]
O=C(Nc1ccc(N2CCN(Cc3ccccc3)CC2)cc1)c1cccnc1 | inconclusive: 16.4 µM [falling, single point]
O=C(CCn1c(=O)c2cccn2c2ccc(F)cc21)NCc1ccccc1F | inactive
Cc1ccc(NC(=O)CSc2nc(-c3ccc(F)cc3)cc(C(F)(F)F)c2C#N)cc1 | inactive
OCCCNc1c2ccccc2nc2ccccc12 | active: 8.2 µM
COc1ccc(C2C3=C(CC(C)(C)CC3=O)Oc3ncn(Cc4ccco4)c(=N)c32)cc1 (centres undefined) | active: 9.2 µM
CN(C(=O)c1cc(S(=O)(=O)N2CCc3ccccc32)cn1C)C1CCCCC1 | inconclusive: 9.2 µM [falling, partial curve, poor fit]
